# PubChem BioAssay AID488837 (National Center for Advancing Translational Sciences (NCATS), 2010)
# Amino acid sequences for entries named in this document (tags omitted). A change or cut given only in a name is not applied to a line headed by its entry.
# UniProt O00167: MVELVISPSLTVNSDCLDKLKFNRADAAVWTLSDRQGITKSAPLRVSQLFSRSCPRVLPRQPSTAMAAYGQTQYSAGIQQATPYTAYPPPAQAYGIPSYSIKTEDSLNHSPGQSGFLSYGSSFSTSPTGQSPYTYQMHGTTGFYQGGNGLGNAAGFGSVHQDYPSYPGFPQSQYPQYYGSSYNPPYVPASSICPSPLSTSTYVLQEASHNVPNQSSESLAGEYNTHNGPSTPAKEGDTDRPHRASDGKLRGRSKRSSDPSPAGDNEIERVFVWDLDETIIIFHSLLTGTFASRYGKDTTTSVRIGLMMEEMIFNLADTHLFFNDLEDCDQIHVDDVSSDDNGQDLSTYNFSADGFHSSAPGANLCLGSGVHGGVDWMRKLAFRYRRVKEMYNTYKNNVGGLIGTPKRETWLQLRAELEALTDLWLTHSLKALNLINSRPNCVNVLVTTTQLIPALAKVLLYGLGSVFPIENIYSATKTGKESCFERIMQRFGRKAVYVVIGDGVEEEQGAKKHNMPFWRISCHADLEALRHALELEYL
# Screen size: about 330,000 compounds; about 20 (0.006%) were called active. Inconclusive means that the source gave no clear call. Such entries were picked first, then a sample of the others. Calls follow the shape of the dose curve; as a rule, active = well fitted inhibition curve with a large enough effect; inconclusive = small, poorly fitted or top-dose-only effect, or effect the other way; inactive = flat fitted curve, though single readings scatter. Potencies beside an inconclusive call are fits to weak or partial responses and may not hold up.
# Biological target: Protein phosphatase EYA2 (Homo sapiens) (UniProt O00167)
# Experiment: qHTS Assay for Inhibitors of the Phosphatase Activity of Eya2
# Conditions: recombinant Eya2, OMFP fluorescence dephosphorylation (OMFP is methylfluorescein phosphate); activity, negative = inhibition: at 76.9 µM (top of the series) unless noted
# Procedure, shortened: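 Eya2 protein (added as 0.2 uM solution) was preincubated with compound for 10 min at ambient temperature in 50 mM HEPES pH 7.5, 50 mM NaCl, 5 uM MgCl2, 0.05% BSA, 1 mM DTT. OMFP (added at 50 uM) then reacted 10 min; fluorescence read at 485/525 nm.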
# % is scaled to controls: 0 for no effect and ±100 for the full control effect; potency is read from the fitted curve at half-maximal effect.
SMILES,"activity, negative = inhibition",Potency
O=C(Nc1nc2ccccc2n1CCN1CCOCC1)c1cccc([N+](=O)[O-])c1,inactive: 4.4%,–
COc1ccc(O)c(C(=O)c2cnn(C(=O)c3cccc(N(C)C)c3)c2)c1,inactive: -16.5%,–
Cc1cccn2c(=O)nc(SCC(=O)NCc3ccc(F)cc3)nc12,–,"inconclusive: 10 µM [inhibitor, partial curve]"
O=C(C1CCN(c2ncnc3c2nc2n3CCCCC2)CC1)N1CCN(c2ccccc2F)CC1,–,"inconclusive: 17.8 µM [inhibitor, single point]"
O=C(/C=C1\NC2(CCCC2)Cc2ccccc21)C(=O)N/N=C/c1ccc(O)c(O)c1,inactive: -13.3%,–
Nc1c(C(=O)O)sc2nc(-c3ccc(F)cc3)cc(-c3ccccc3)c12,–,"inconclusive: 8910 µM [inhibitor, single point]"
CCOc1ccc(S(=O)(=O)NC(C)C(=O)NCc2ccncc2)cc1 (stereo unspecified),–,"inconclusive: 20 µM [inhibitor, partial curve]"
CC(=O)OCCn1c2nc(=O)[nH]c(=O)c-2nc2cc(C)c(C)cc21,–,"inconclusive: 3.98 µM [activator, full curve]"
Cc1ccc(-c2nnc(SCC(=O)N/N=C/c3ccccc3C(=O)O)n2-c2ccc(Cl)cc2)cc1,–,"inconclusive: 100 µM [inhibitor, single point]"
CCOc1ccc2[nH]c(=O)c(C(c3nnnn3Cc3ccco3)N3CCCC(C)C3)cc2c1 (stereo unspecified),inactive: 11.2%,–
O=C(O)C(O)c1ccco1 (stereo unspecified),inactive: 5.62%,–
CCC(CC)NC(=O)Nc1ccc(F)c(Cl)c1,inactive: -8.96%,–
CCOC(=O)Cc1c(C)nc2cc(-c3ccc(C(C)(C)C)cc3)[nH]n2c1=O,inactive: 3.14%,–
COc1cccc(-c2nn(-c3ccccc3)cc2CN2CCCO2)c1,–,"inconclusive: 22.4 µM [inhibitor, single point]"
CCCNC(=O)c1ccc(COc2ccc(CCC)cc2OC)o1,–,"inconclusive: 708 µM [inhibitor, partial curve, poor fit]"
C=CCSc1nc2ccccc2c(=O)n1C1CCOC(C)(C)C1 (stereo unspecified),–,"inconclusive: 178 µM [inhibitor, single point]"
O=C(COc1ccc(F)cc1)Nc1nc(-c2ccccn2)cs1,inactive: -7.82%,–
Cc1ccccc1NC(=S)NC(=O)c1cncc(Br)c1,inactive: -10.9%,–
CCOC(=O)C1=C(COC(=O)c2ccc3ccccc3c2O)NC(=O)NC1C (stereo unspecified),inactive: -8.64%,–
N=C1/C(=C\c2ccc(SCc3ccco3)o2)C(=O)N=C2SC=NN12,–,"inconclusive: 20 µM [inhibitor, single point]"
O=C(CCC(=O)N1CCSc2ccccc21)Nc1cccc(F)c1,–,"inconclusive: 251 µM [inhibitor, single point]"
COc1cccc2c1OC[C@@H](CO)[C@H]2N(C)C(=O)Nc1ccc(Cl)cc1,–,"inconclusive: 15.8 µM [inhibitor, single point]"
S=C(Nc1ccccc1)N1CCCCC1,–,"inconclusive: 112 µM [inhibitor, partial curve]"
O=C(Nc1ccc(Oc2cccnc2)nc1)c1ccc(C(F)(F)F)cc1,–,"inconclusive: 89.1 µM [inhibitor, single point]"

SMILES,"activity, negative = inhibition",Potency
O=[N+]([O-])c1ccccc1/C=C/C=N/N1CCCCC1,–,"inconclusive: 89.1 µM [inhibitor, partial curve, poor fit]"
O=C(CNC(=O)c1ccccc1Br)N/N=C/c1cc(Br)ccc1O,inactive: 7%,–
CC1CCN(S(=O)(=O)c2cc3c4c(c2)C(C)C(=O)N4CCC3)CC1 (stereo unspecified),inactive: -9.34%,–
CC1Cc2ccccc2N1C(=S)NC1CCCC1 (stereo unspecified),–,"inconclusive: 100 µM [inhibitor, single point]"
COc1ccc(N/C(=C/[N+](=O)[O-])SC)cc1,–,"inconclusive: 22.4 µM [inhibitor, single point]"
S=C(Nc1ccccc1)N1N=C(c2cccs2)CC1c1cccs1 (stereo unspecified),–,"inconclusive: 17.8 µM [inhibitor, single point]"
Cc1nc2sccn2c(=O)c1S(=O)(=O)N1CCN(c2ccccc2)CC1,inactive: -20.8%,–
Cc1oc(C(=O)O)cc1COc1ccc2c(C)cc(=O)oc2c1,–,"inconclusive: 12.6 µM [inhibitor, single point]"
O=C(NC1(O)C(=O)c2ccccc2C1=O)c1ccc(C(F)(F)F)cc1,–,"inconclusive: 79.4 µM [inhibitor, partial curve]"
O=C(c1c(F)cccc1F)N1CCC(O)(c2ccc(F)cc2)CC1,–,"inconclusive: 100 µM [inhibitor, single point]"
COc1ccccc1C(=O)NCCn1cc(SCC(=O)Nc2nnc(C)s2)c2ccccc21,–,"inconclusive: 17.8 µM [inhibitor, single point]"
CCCC(=O)NC(c1ccc(C)cc1)c1ccc2cccnc2c1O (stereo unspecified),inactive: 3%,–
Nc1nc2ncc(C(=O)c3cc(F)ccc3O)cc2s1,inactive: -3.59%,–
Cc1cc(=O)[nH]c(SCc2nnc(-c3ccccc3)o2)n1,–,"inconclusive: 20 µM [inhibitor, single point]"
COc1cc(NC(=S)Nc2cccc(C)n2)cc(OC)c1OC,inactive: 11.2%,–
Cc1ccc(NC(=O)CNC(=O)N2CC(=O)Nc3ccccc32)cc1F,–,"inconclusive: 22.4 µM [inhibitor, partial curve]"
O=C1CC(C(=O)Nc2cc(Cl)ccc2Cl)n2ncnc2N1 (stereo unspecified),–,"inconclusive: 25.1 µM [inhibitor, single point]"
CCN/C=C(\C#N)S(=O)(=O)c1ccc(Br)cc1,inactive: 5.33%,–
CCCCCc1ccc(OCCOCCn2c[n+](C)c3ccccc32)c(CCCCC)c1,–,"inconclusive: 100 µM [inhibitor, single point]"
COc1cc(C(=O)Nc2nc3ccc(S(C)(=O)=O)cc3s2)cc(OC)c1C,–,"inconclusive: 100 µM [inhibitor, single point]"
N#Cc1cc([N+](=O)[O-])c(-n2nnc3ccccc32)c([N+](=O)[O-])c1,–,"inconclusive: 158 µM [inhibitor, partial curve, poor fit]"
O=C(Nc1cc(S(=O)(=O)N2CCOCC2)ccc1OCC(F)(F)F)C1=COCCO1,inactive: -12.7%,–
COCCN(C(=O)c1csnn1)C(C(=O)NC1CCCC1)c1ccccc1 (stereo unspecified),–,"inconclusive: 22.4 µM [inhibitor, single point]"
O=C(NCCCc1nc2ccccc2[nH]1)c1ccc(F)cc1,–,"inconclusive: 126 µM [inhibitor, partial curve]"

SMILES,"activity, negative = inhibition",Potency
O=C(Nc1nc2ccc(F)cc2s1)Oc1ccccc1,–,"inconclusive: 100 µM [inhibitor, single point]"
CCNC(C(=O)c1c[nH]c2c(CC)cccc12)c1ccccc1 (stereo unspecified),inactive: -6.13%,–
COc1ccc(C(=O)Nc2cc(C)nn2-c2nc3ccccc3[nH]2)c(OC)c1,–,"inconclusive: 794 µM [inhibitor, partial curve, poor fit]"
CC1=NN(C(N)=S)C(=O)C1N=Nc1cccc(C)c1 (stereo unspecified),inactive: -1.02%,–
CC(C)Oc1cccc(-c2cc(C(=O)NC(=S)N(C)c3ccccc3C(=O)O)c3ccccc3n2)c1,inactive: -0.315%,–
N#CCC(=O)Nn1c(=S)[nH]c2ccccc2c1=O,–,"inconclusive: 178 µM [inhibitor, partial curve]"
CCOC(=O)CN1N=C(/C=C/c2ccc(OC)cc2)CCC1=O,–,"inconclusive: 22.4 µM [inhibitor, single point]"
CN1CCN(c2ccc(Cl)cc2NC(=O)c2ccc(=O)n(C)n2)CC1,–,"inconclusive: 25.1 µM [inhibitor, single point]"
Cc1cccc(NC(=O)CSc2nnc(CCNC(=O)OC(C)(C)C)o2)c1C,–,"inconclusive: 100 µM [inhibitor, single point]"
CN1CCN(CC(=O)NC(=O)NC2CCCCC2)CC1,inactive: -19.7%,–
CCOc1cc(/C=N/NC(=O)C(=O)NCC2CCCO2)ccc1OCC(=O)N1CCOCC1 (stereo unspecified),–,"inconclusive: 89.1 µM [inhibitor, single point]"
CCN(CC)C(=O)Oc1ccc(Br)cc1C(=O)Nc1ccc(F)cc1F,–,"inconclusive: 89.1 µM [inhibitor, single point]"
CCOC(=O)c1ccccc1N/C=C1\CCCCC1=O,–,"inconclusive: 25.1 µM [inhibitor, single point]"
CC(=O)Nc1ccc(NC(=O)C2CCCN2C(=O)Nc2cccc(F)c2)cc1 (stereo unspecified),–,"inconclusive: 15.8 µM [inhibitor, single point]"
O=C1NCCCCC1NS(=O)(=O)c1ccc(F)c(F)c1 (stereo unspecified),–,"inconclusive: 50.1 µM [inhibitor, single point]"
C#CCOCCOCCOCCNc1nc(N2CCN(C(=O)CCCCCCCCCCNC(=O)[C@@H](CCC(=O)O)n3cc(CCCCCN)nn3)CC2)nc(N2CCN(C(=O)CCCCCCCCCCNC(=O)[C@H]([C@@H](C)CC)n3cc(CCCCCN)nn3)CC2)n1,–,"inconclusive: 89.1 µM [inhibitor, partial curve]"
Cc1ccc(N2C(=O)[C@@H]3C(c4cccnc4)=NO[C@@H]3C2=O)c(C)c1,–,"inconclusive: 79.4 µM [inhibitor, single point]"
COC(=O)C(NC(C)=O)(Nc1cccc(C)n1)C(F)(F)F (stereo unspecified),–,"inconclusive: 100 µM [inhibitor, single point]"
CCOC(=O)C1(Cc2ccc(Cl)cc2)CCN(C(C)Cc2ccc(O)c(OC)c2)CC1 (stereo unspecified),inactive: -1.49%,–
COC(=O)c1ccc(CSc2ccc3nnc(-c4ccc(OC)cc4)n3n2)o1,inactive: -5.43%,–
Cc1nn(C)cc1N1C(=O)c2cccc3c(N)ccc(c23)C1=O,–,"inconclusive: 39.8 µM [activator, partial curve]"
COc1ccc(C(C)=O)cc1Cn1cnc2c(cnn2C)c1=O,–,"inconclusive: 63.1 µM [inhibitor, single point]"
COc1ccc(OCC(O)CN2C(=O)c3ccccc3C2=O)cc1 (stereo unspecified),–,"inconclusive: 25.1 µM [inhibitor, partial curve, poor fit]"

# Taken from above.
# Under activity, negative = inhibition, COc1cc(NC(=S)Nc2cccc(C)n2)cc(OC)c1OC shows inactive: 11.2%
# Under activity, negative = inhibition, O=C(CNC(=O)c1ccccc1Br)N/N=C/c1cc(Br)ccc1O shows inactive: 7%
# Under Potency, CN1CCN(c2ccc(Cl)cc2NC(=O)c2ccc(=O)n(C)n2)CC1 shows inconclusive: 25.1 µM [inhibitor, single point]
# Under Potency, O=C1NCCCCC1NS(=O)(=O)c1ccc(F)c(F)c1 (stereo unspecified) shows inconclusive: 50.1 µM [inhibitor, single point]
